The source of these data is patent US8729047B2, “Compositions for inhibiting redox-sensitive GTPases” (Board of Regents, The University of Texas System, priority 2010, dated 2014).

The subject of the data set is Ras. Description: Co-IP ESI-MS of Ras-bound nucleotide / adduct in T24 or HT1080 cells. The data set is classed as cell-based, human. Conditions: 6-TG, FIG. 9.

Consider `Nc1nc2nc[nH]c2c(=S)[nH]1` [6-TG, 6-thioguanine], for which the “time from initial treatment until detectable amount of 6-TGNP bound to Ras” value is 8 to 10 days.
